Measurements reported in the supplement of paper PMC10849652.
The other results are listed elsewhere or left out.

By UniProt entry, the sequences of proteins in these tests, tags left out. Where a name states a change or a piece, a line headed by the entry shows the natural chain unless it says otherwise.
UniProt Q9H0W8: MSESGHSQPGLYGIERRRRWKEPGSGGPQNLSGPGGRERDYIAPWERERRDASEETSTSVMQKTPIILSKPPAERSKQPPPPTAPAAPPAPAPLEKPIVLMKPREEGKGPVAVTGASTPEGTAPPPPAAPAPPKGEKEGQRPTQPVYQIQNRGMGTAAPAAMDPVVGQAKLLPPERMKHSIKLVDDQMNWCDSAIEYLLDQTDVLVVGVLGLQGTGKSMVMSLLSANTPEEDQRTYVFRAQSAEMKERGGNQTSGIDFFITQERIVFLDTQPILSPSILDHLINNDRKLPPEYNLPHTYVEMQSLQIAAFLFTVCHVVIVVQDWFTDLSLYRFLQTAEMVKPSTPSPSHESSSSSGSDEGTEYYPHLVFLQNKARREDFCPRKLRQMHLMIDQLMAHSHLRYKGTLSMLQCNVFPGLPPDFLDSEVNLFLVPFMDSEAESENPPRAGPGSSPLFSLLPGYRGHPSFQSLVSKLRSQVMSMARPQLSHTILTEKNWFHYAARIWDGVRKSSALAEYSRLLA
UniProt P35711: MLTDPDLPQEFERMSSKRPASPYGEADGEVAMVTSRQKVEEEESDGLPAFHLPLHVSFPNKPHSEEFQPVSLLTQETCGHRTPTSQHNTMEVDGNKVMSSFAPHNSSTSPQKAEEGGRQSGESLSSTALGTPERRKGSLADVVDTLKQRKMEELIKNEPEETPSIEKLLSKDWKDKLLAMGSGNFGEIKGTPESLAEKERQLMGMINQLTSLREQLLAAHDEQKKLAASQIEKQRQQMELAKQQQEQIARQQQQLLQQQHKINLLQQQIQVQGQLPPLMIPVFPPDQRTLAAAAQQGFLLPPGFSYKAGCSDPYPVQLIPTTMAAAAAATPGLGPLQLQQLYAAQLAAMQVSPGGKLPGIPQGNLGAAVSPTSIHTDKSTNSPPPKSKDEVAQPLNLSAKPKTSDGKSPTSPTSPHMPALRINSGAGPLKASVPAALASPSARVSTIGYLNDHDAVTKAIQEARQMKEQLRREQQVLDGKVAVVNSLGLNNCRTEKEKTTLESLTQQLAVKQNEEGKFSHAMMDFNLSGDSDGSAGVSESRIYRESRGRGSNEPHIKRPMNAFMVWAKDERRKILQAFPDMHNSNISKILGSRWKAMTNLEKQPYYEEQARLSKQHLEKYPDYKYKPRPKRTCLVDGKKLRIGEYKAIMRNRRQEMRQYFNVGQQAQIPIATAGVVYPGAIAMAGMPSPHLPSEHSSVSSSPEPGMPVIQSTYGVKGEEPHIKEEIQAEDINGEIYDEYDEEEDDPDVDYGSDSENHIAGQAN
UniProt Q9H4I9: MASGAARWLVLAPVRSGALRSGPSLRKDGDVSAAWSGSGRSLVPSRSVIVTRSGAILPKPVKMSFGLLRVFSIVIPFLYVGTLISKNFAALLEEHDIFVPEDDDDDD
UniProt P0DJ93: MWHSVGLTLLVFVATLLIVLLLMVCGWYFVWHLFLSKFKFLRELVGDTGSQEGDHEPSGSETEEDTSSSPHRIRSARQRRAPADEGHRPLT
UniProt Q0VAQ4: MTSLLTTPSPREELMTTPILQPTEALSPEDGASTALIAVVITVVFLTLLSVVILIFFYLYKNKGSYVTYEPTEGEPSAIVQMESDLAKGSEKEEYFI
UniProt O60271: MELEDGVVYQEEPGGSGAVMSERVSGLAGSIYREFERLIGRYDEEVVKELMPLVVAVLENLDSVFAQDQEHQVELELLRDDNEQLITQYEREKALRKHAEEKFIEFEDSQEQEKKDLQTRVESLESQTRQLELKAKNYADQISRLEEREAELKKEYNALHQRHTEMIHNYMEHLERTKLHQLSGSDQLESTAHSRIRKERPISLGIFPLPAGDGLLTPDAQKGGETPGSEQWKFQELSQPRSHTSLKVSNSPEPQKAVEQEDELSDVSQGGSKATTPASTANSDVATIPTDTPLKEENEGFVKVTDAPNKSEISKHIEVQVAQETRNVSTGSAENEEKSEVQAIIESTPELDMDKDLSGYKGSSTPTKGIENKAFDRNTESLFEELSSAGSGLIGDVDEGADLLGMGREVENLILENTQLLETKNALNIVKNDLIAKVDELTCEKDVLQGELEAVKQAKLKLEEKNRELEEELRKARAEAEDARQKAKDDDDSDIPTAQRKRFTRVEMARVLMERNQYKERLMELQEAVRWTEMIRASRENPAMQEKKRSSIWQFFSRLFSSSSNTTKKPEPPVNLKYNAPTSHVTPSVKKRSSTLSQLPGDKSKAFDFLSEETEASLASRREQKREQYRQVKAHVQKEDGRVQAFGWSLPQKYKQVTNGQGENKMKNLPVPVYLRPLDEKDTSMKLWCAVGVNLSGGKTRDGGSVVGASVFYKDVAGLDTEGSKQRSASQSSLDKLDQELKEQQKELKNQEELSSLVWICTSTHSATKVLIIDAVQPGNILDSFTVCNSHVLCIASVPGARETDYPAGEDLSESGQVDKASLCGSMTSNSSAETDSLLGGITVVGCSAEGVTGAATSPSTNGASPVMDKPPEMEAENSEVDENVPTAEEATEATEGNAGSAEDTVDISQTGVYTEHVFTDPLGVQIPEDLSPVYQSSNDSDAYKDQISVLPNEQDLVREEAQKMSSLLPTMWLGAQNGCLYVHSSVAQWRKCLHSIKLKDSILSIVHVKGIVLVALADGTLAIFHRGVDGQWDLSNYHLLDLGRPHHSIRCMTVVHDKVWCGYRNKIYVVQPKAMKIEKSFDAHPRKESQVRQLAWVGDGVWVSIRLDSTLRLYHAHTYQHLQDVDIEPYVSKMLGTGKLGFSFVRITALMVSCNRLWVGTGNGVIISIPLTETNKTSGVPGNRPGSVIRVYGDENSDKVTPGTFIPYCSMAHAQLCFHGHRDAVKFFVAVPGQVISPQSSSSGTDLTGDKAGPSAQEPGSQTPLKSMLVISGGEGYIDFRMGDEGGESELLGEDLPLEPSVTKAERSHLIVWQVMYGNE
UniProt Q9H3E2: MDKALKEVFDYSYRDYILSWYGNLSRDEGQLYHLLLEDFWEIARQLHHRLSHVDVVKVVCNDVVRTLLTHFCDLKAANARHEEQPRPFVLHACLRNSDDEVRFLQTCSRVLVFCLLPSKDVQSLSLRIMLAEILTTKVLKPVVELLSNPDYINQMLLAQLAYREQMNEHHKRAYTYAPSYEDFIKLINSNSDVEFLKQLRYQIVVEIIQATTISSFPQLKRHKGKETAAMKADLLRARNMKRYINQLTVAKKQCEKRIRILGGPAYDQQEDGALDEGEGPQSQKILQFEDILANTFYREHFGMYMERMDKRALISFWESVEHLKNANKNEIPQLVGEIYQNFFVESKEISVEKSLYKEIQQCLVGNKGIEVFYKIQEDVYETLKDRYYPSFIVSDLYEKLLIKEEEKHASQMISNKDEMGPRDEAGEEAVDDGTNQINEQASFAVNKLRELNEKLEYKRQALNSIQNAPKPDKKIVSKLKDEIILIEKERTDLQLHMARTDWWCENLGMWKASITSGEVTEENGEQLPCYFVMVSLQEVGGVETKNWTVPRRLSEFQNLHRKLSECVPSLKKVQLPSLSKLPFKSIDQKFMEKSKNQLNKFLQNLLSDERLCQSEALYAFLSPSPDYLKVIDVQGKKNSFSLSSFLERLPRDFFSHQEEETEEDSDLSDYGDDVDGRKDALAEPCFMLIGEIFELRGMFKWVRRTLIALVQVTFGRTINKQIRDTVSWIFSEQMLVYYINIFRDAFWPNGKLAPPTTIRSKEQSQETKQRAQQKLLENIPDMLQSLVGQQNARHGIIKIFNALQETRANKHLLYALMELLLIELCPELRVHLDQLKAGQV
UniProt Q9Y2E8: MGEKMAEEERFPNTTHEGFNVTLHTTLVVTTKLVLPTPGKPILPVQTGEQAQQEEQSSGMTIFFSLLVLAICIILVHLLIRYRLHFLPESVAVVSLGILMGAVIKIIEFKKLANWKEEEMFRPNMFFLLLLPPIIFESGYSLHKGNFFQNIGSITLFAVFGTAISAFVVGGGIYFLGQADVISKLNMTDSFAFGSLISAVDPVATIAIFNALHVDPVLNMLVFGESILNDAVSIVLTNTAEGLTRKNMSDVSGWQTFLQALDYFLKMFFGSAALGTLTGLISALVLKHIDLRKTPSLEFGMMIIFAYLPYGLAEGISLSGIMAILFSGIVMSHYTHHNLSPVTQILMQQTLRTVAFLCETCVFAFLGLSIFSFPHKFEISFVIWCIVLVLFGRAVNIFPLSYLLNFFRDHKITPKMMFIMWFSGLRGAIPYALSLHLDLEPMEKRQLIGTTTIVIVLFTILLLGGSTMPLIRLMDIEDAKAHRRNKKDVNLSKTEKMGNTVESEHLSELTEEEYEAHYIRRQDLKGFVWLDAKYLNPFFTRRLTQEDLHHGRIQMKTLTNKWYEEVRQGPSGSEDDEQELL
UniProt Q96RF0: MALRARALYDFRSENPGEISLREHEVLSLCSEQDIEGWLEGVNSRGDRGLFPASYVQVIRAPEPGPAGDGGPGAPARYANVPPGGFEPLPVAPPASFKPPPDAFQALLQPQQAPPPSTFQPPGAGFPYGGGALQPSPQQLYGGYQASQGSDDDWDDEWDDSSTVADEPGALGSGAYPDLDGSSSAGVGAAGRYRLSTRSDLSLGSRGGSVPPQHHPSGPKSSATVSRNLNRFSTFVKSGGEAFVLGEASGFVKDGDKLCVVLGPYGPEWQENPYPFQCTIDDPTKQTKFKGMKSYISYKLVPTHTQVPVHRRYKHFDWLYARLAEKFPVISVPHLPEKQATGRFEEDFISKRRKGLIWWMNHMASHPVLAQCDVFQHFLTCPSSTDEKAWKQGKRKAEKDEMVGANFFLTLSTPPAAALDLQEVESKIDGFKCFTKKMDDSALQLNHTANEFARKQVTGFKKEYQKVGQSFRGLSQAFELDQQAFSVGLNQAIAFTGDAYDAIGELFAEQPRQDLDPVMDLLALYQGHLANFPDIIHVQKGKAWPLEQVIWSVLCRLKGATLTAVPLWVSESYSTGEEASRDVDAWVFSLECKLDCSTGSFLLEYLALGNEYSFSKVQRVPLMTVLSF
UniProt Q9Y5W8: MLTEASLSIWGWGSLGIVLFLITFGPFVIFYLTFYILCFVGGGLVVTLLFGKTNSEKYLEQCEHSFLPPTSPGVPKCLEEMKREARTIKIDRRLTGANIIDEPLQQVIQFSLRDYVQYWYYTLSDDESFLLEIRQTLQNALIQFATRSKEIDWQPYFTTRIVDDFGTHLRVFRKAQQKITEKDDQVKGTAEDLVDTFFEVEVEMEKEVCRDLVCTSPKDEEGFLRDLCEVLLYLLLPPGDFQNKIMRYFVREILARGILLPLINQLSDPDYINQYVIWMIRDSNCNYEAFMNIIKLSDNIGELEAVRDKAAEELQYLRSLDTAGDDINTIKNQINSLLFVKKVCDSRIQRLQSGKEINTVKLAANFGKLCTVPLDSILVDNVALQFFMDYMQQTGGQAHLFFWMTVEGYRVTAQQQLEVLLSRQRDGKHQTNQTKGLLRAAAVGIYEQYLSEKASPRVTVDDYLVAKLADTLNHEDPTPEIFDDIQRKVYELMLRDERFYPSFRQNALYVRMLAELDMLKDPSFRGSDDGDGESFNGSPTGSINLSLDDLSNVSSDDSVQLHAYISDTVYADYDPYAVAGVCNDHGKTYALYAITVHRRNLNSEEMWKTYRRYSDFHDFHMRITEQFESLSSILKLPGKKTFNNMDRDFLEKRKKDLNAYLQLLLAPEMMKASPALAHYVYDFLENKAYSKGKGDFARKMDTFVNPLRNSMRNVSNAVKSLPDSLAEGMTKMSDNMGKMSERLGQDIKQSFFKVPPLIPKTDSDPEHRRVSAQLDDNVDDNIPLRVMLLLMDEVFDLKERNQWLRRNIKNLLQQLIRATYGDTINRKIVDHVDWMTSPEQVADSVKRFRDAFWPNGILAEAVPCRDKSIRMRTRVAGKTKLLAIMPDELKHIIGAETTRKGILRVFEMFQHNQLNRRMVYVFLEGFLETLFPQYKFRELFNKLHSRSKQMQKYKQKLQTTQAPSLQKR
UniProt Q99717: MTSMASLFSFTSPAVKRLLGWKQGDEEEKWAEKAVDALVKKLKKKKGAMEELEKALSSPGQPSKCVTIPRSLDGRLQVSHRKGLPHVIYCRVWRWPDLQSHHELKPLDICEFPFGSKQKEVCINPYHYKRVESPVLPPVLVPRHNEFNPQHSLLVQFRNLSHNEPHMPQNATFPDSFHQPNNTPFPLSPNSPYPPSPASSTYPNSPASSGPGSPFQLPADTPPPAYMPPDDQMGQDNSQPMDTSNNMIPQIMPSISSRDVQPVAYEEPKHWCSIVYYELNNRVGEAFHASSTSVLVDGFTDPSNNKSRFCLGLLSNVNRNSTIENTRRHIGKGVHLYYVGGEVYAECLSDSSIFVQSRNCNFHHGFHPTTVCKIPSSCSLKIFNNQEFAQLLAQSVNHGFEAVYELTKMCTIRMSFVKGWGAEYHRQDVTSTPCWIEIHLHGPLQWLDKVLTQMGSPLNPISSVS

What was measured:
Assay in all cases: log2 fold change, soluble protein after heating vs DMSO (PISA); higher = thermal stabilisation; K562 cells, 10 uM, 30 min; active = over 0.2 and 3.5 SD of the protein, either way, in both replicates (recomputed)
[1] = compound: CC1=C(C=C(C=C1)NC(=O)C2=CC(=CC=C2)C(C)(C)C#N)NC3=CC4=C(C=C3)N=CN(C4=O)C
Method in brief: (§1)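 Soluble protein was quantified by TMTpro 16plex LC-MS/MS after channel sums were equalised. It was obtained as the supernatant after 21,000xg for 90 min from pooled aliquots of K562 cells (2×10^6 cells/mL, 10 μM compound, 30 min) heated for 3 min across 48°C-58°C and extracted in PBS with 0.5% NP-40 at 4°C. Thermal stability values are relative to control samples and come from duplicates. They are given as log2 fold changes.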

[2] = compound: CC1=CC=C(C=C1)SC2=C3C=C(SC3=CN=C2)C(=O)N
Method in brief: as §1

[3] = compound: CC1=NC(=CC=C1)C2=C(N=C(N2)C(C)(C)C)C3=CC4=NC=CN=C4C=C3
Method in brief: as §1

Nexturastat A = compound: CCCCN(Cc1ccc(C(=O)NO)cc1)C(=O)Nc1ccccc1 [Nexturastat A]
Method in brief: as §1

vemurafenib = compound: CCCS(=O)(=O)Nc1ccc(F)c(C(=O)c2c[nH]c3ncc(-c4ccc(Cl)cc4)cc23)c1F [vemurafenib]
Method in brief: as §1

[4] = compound: CCCS(=O)(=O)Nc1ccc(F)c(C(=O)c2c[nH]c3ncc(Cl)cc23)c1F
Method in brief: as §1

[5] = compound: CCCc1cc(C)[nH]c(=O)c1CNC(=O)c1cc(-c2ccnc(N3CCN(C)CC3)c2)cc2c1cnn2C(C)C
Method in brief: as §1

givinostat = compound: CCN(CC)Cc1ccc2cc(COC(=O)Nc3ccc(C(=O)NO)cc3)ccc2c1 [givinostat]
Method in brief: as §1

barasertib = compound: CCN(CCCOc1ccc2c(Nc3cc(CC(=O)Nc4cccc(F)c4)[nH]n3)ncnc2c1)CCOP(=O)(O)O [barasertib]
Method in brief: as §1

volasertib = compound: CC[C@@H]1C(=O)N(C)c2cnc(Nc3ccc(C(=O)N[C@H]4CC[C@H](N5CCN(CC6CC6)CC5)CC4)cc3OC)nc2N1C(C)C [volasertib]
Method in brief: as §1

epoxomicin = compound: CC[C@H](C)[C@@H](C(=O)N[C@@H]([C@@H](C)O)C(=O)N[C@@H](CC(C)C)C(=O)[C@]1(CO1)C)NC(=O)[C@H]([C@@H](C)CC)N(C)C(=O)C [epoxomicin]
Method in brief: as §1

[6] = compound: CCn1c(C(=O)N(C2CC2)C2CC2)cc2c3c(ncn3C)c(Nc3cc(C)n(C)n3)nc21
Method in brief: as §1

[7] = compound: CCn1cc(-c2ccnc3[nH]c(-c4cccc(CN(C)C)c4)cc23)c(-c2ccc(NC(=O)N(C)C)cc2)n1
Method in brief: as §1

[8] = compound: CN(C)CC(=O)Nc1ccc2[nH]c(=O)c3ccccc3c2c1
Method in brief: as §1

rosiglitazone = compound: CN(CCOC1=CC=C(C=C1)C[C@H]2C(=O)NC(=O)S2)C3=CC=CC=N3 (racemic) [rosiglitazone]
Method in brief: as §1

[9] = compound: CN1C2=C(C3=C1C(=O)N(N=C3)CC4=CC(=CC=C4)N)SC(=C2)S(=O)C
Method in brief: as §1

[10] = compound: CN1CCC(CNc2ccc3ncc(-c4cccc(OC(F)(F)F)c4)n3n2)CC1
Method in brief: as §1

[11] = compound: CC1=C(C=C(C=C1)NC(=O)C2=CC(=CC=C2)N(C)C)NC(=O)C3=CC=C(C=C3)O
Method in brief: as §1

[12] = compound: CC[C@H](C)N1C=C(C2=C(C=C(C=C21)C3=CN=C(C=C3)N4CCNCC4)C(=O)NCC5=C(C=C(NC5=O)C)C)C
Method in brief: as §1

[13] = compound: CC[C@@H]1C(=O)N(C)c2cnc(Nc3ccc(C(=O)NC4CCN(C)CC4)cc3OC)nc2N1C1CCCC1
Method in brief: as §1

Measured: log2 fold change

SMG9 (UniProt Q9H0W8)
inactive: [1] 0.025 | [2] -0.234 | [3] -0.066 | Nexturastat A 0.043 | vemurafenib 0.011 | [4] 0.274 | [5] 0.144 | givinostat 0.065 | barasertib 0.044 | volasertib -0.072 | epoxomicin -0.02 | [6] -0.114 | [7] 0.065 | [8] 0.05 | rosiglitazone -0.03 | [9] 0.144 | [10] -0.036

SOX5 (UniProt P35711)
inactive: [1] -0.125 | [11] 0.004 | [2] -0.144 | [3] 0.02 | vemurafenib -0.05 | [4] -0.063 | [5] 0.042 | givinostat 0.013 | barasertib -0.119 | volasertib -0.082 | [12] 0.014 | [8] -0.062

SMG7 isoform 4 (UniProt Q92540)
inactive: [1] -0.085 | [11] 0.034 | [2] -0.064 | [3] -0.089 | Nexturastat A 0.112 | vemurafenib -0.093 | [4] -0.287 | givinostat 0.248 | barasertib -0.067 | [13] -0.046 | volasertib -0.195 | [12] 0.138 | epoxomicin -0.054 | [6] 0 | [7] 0.053 | [8] -0.028 | rosiglitazone 0.089 | [9] 0.099 | [10] -0.187

SP6 (UniProt Q3SY56)
inactive: [1] -0.244 | [11] 0.104 | [2] -0.013 | Nexturastat A -0.002 | vemurafenib 0.055 | [4] -0.088 | [5] -0.026 | givinostat 0.009 | barasertib 0.026 | [13] -0.015 | volasertib 0.195 | [12] 0.054 | epoxomicin 0.096 | [6] -0.113 | [8] -0.054 | rosiglitazone -0.054 | [9] -0.153

SMDT1 (UniProt Q9H4I9)
inactive: [1] 0.137 | [3] 0.033 | Nexturastat A -0.015 | vemurafenib 0.037 | [5] -0.127 | barasertib -0.021 | [13] 0.08 | epoxomicin -0.064 | [7] -0.044 | [8] 0.108 | [9] 0.028 | [10] 0.01

SMIM13 (UniProt P0DJ93)
inactive: [1] -0.132 | [11] -0.119 | [2] 0.123 | [4] 0.124 | [5] -0.021 | barasertib 0.073 | [13] -0.049 | volasertib -0.116 | [12] 0.002 | rosiglitazone -0.029

SMAGP (UniProt Q0VAQ4)
inactive: [1] 0.078 | [2] -0.013 | Nexturastat A 0.041 | [4] 0 | [5] 0.263 | barasertib -0.095 | [13] 0.343 | volasertib 0.165 | [12] -0.045 | epoxomicin 0.206 | rosiglitazone 0.142 | [9] 0.057

SPAG9 isoform 4 (UniProt O60271)
inactive: [1] 0.184 | [11] -0.025 | [3] -0.038 | vemurafenib 0.174 | [5] 0.028 | givinostat 0.021 | barasertib 0.176 | [13] -0.192 | [12] 0.093 | [8] -0.093

SNRK (UniProt Q9NRH2)
inactive: [1] -0.029 | [2] 0.066 | [3] 0.225 | [4] 0.07 | [13] -0.157 | volasertib -0.085 | [9] -0.011

SNX25 (UniProt Q9H3E2)
inactive: [1] -0.179 | [2] -0.333 | [3] 0.006 | [4] 0.085 | [5] 0.059 | givinostat 0.151 | volasertib -0.716 | [12] -0.11 | [6] -0.166 | [9] 0.12

SMTN isoform 6 (UniProt P53814)
inactive: [1] 0.185 | [2] -0.01 | Nexturastat A -0.389 | vemurafenib -0.075 | [4] -0.003 | givinostat -0.13 | volasertib -0.23 | epoxomicin -0.095 | [6] -0.204 | [8] 0

SLC9A8 isoform 2 (UniProt Q9Y2E8)
inactive: [1] 0.033 | [2] 0.098 | Nexturastat A -0.07 | vemurafenib 0.058 | [4] 0.005 | [5] 0.031 | givinostat -0.001 | barasertib 0.01 | [13] 0.172 | volasertib -0.122 | [12] -0.051 | epoxomicin -0.017 | [6] 0.022 | [8] 0.009 | rosiglitazone -0.007 | [9] -0.112

Pulled one by one from the entries so far, two records:
SLC9A8 isoform 2 (UniProt Q9Y2E8)
inactive: [1] 0.033 | [2] 0.098 | Nexturastat A -0.07 | vemurafenib 0.058 | [4] 0.005 | [5] 0.031 | givinostat -0.001 | barasertib 0.01 | [13] 0.172 | volasertib -0.122 | [12] -0.051 | epoxomicin -0.017 | [6] 0.022 | [8] 0.009 | rosiglitazone -0.007 | [9] -0.112

SNRK (UniProt Q9NRH2)
inactive: [1] -0.029 | [2] 0.066 | [3] 0.225 | [4] 0.07 | [13] -0.157 | volasertib -0.085 | [9] -0.011

(list continues)

SMPD1 (UniProt P17405)
inactive: [1] 0.218 | [11] 0.321 | [2] 0.088 | [3] -0.023 | vemurafenib 0.157 | [4] 0.067 | [5] -0.534 | volasertib -0.136 | [7] 0.169 | [8] 0.351 | [9] 0.04 | [10] -0.437

SOD3 (UniProt P08294)
inactive: [1] 0.016 | [2] 0.331 | vemurafenib 0.005 | [4] -0.08 | [5] -0.306 | volasertib 0.313 | [7] 0.004 | [8] 0.047 | [9] 0.011 | [10] -0.134

SNX18 (UniProt Q96RF0)
inactive: [1] -0.068 | [3] -0.071 | Nexturastat A 0.141 | givinostat 0.053 | epoxomicin 0.08 | [6] -0.064

SNX13 (UniProt Q9Y5W8)
inactive: [1] -0.038 | [11] -0.015 | Nexturastat A -0.029 | [5] -1.15 | givinostat 0.253 | barasertib 0.064 | epoxomicin 0.061 | [6] 0.011 | rosiglitazone 0.065 | [9] 0.049

SNX19 (UniProt Q92543)
inactive: [1] 0.084 | [2] -0.019 | [3] -0.037 | Nexturastat A -0.016 | [4] 0.107 | givinostat 0.003 | [13] -0.089 | volasertib -0.276 | epoxomicin -0.082 | [6] -0.175

SNRPC (UniProt Q5TAL2)
inactive: [1] -0.081 | [11] -0.03 | [2] -0.065 | Nexturastat A 0.361 | vemurafenib 0.056 | [4] 0.002 | [5] 0.118 | givinostat 0.153 | barasertib 0.104 | [13] 0.225 | volasertib 0 | [12] -0.149 | epoxomicin 0.199 | [6] -0.131 | [7] -0.155 | [8] 0.033 | rosiglitazone 0.016 | [9] -0.039 | [10] 0.12

SMAD5 (UniProt Q99717)
inactive: [1] 0.02 | [11] -0.042 | [3] 0.003 | Nexturastat A 0.151 | vemurafenib 0.016 | [5] -0.063 | givinostat -0.034 | barasertib 0.16 | [12] 0.081 | epoxomicin 0.082 | [6] -0.126 | [7] -0.055 | [8] -0.065 | rosiglitazone 0.072 | [9] 0.082 | [10] 0.087
